Measured values published in paper PMC9576612.
These are yes or no findings as the source states them, for the method shown. For some assays here: Binding seen in cells or lysates may run through a third protein. Some results given as binding are weak or reduced against the parent protein; the word gives no strength. For some assays here: Sequences can lack the tags named with a protein.

Chains of the proteins cited; added tags and fusions are not shown. Residues count along the entry.
UniProt P36222, residues 22-383: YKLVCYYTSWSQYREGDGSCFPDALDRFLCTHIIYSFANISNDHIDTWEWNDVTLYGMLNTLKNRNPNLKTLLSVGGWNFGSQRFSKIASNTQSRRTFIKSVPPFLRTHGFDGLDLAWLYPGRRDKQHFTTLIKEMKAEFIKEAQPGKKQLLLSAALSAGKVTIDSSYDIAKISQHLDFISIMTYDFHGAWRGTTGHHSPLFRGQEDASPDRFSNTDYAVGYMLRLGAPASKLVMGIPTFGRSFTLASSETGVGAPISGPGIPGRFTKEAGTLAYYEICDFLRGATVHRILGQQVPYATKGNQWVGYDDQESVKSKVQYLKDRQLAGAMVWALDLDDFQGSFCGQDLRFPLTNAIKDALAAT
UniProt P12814: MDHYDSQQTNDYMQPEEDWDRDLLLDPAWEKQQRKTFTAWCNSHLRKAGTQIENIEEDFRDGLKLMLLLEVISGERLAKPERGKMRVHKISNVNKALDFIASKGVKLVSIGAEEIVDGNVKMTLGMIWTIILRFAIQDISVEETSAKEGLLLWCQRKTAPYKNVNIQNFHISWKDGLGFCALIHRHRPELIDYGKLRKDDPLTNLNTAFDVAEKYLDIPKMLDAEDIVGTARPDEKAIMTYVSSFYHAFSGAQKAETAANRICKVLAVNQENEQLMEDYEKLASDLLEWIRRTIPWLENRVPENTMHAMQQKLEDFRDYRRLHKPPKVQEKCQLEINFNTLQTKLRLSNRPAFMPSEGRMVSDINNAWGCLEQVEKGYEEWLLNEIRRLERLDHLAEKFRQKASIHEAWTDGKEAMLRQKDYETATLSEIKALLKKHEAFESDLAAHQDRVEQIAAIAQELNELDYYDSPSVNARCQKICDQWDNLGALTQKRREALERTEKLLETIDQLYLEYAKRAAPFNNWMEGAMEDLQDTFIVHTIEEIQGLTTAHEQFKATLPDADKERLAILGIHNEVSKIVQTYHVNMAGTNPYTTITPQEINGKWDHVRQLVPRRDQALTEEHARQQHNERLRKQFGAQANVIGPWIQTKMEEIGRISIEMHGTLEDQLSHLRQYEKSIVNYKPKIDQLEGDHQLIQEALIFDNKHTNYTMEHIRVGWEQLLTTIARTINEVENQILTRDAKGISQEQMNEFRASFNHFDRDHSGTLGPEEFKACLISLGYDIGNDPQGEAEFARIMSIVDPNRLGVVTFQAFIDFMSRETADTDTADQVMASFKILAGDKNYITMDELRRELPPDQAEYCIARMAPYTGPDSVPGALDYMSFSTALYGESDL
UniProt O43707: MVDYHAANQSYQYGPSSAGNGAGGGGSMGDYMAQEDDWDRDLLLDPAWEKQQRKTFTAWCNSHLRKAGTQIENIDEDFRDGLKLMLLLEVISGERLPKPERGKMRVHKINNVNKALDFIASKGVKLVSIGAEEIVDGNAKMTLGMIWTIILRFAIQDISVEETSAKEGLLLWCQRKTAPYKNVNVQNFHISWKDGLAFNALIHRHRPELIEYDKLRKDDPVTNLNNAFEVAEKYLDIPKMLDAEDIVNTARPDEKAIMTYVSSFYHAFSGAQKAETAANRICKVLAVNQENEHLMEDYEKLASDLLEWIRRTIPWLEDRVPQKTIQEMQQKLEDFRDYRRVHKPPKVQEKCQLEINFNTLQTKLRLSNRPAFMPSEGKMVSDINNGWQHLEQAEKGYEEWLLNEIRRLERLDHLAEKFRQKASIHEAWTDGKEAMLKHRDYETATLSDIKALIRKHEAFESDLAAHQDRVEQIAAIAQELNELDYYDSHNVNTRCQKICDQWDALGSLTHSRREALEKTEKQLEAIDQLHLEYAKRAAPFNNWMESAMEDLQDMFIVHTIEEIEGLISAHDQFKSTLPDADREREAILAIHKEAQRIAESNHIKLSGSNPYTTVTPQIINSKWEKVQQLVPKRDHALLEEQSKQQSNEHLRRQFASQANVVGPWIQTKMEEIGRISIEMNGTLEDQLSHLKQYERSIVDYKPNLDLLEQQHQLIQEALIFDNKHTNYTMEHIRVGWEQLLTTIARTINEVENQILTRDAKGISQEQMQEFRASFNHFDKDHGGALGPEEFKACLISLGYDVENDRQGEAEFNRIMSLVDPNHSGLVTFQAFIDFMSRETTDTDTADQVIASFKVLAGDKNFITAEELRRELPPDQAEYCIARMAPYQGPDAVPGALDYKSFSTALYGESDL
UniProt P19838: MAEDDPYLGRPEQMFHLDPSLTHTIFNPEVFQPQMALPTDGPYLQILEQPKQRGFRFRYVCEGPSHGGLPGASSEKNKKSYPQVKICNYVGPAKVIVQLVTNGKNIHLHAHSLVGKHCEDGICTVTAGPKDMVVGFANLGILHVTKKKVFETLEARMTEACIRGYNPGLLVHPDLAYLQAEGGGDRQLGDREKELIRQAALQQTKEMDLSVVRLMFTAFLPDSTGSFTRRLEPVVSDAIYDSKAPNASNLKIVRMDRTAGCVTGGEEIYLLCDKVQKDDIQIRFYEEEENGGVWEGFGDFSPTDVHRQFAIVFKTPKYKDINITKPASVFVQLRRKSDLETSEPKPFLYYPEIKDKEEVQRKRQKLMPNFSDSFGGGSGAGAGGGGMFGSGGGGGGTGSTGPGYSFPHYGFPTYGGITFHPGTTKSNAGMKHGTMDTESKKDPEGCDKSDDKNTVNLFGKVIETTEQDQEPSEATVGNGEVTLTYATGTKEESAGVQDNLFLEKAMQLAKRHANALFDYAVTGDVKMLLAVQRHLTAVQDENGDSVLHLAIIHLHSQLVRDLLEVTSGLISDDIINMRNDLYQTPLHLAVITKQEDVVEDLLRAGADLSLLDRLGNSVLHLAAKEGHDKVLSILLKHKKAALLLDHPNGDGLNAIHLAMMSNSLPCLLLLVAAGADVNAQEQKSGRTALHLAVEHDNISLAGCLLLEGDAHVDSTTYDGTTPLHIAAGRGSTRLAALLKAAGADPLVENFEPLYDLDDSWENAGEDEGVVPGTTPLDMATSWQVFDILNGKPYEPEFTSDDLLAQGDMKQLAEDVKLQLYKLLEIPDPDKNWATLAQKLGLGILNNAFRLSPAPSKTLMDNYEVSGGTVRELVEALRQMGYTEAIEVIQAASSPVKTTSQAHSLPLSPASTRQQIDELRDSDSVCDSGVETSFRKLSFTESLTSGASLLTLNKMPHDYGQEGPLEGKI

Columns and labels:
[1] = biological target: CHI3L1 (Chitinase-3-like protein 1), endogenous in glioblastoma cells (human (endogenous in U87MG and A172)) (UniProt P36222); test: co-IP; cytoplasmic and nuclear proteins isolated from U87MG cells, immunoprecipitated with IgG or anti-CHI3L1 antibody, immunoblot
[2] = biological target: CHI3L1 (Chitinase-3-like protein 1), endogenous in glioblastoma cells (human (endogenous in U87MG and A172)) (UniProt P36222); test: co-IP; whole lysates of U87MG and A172 cells in IP buffer (20 mM Tris pH 7.5, 150 mM NaCl, 1% TritonX-100, 1 mM EDTA); anti-CHI3L1 antibody or IgG overnight at 4 °C, protein G agarose; immunoblot
[3] = biological target: ACTN1 (GST-tagged, on the HuProt 20K human proteome microarray) (human) (UniProt P12814); test: peptide or protein array; HuProt 20K human proteome microarray with over 21,000 affinity-purified GST-tagged proteins, probed with biotin-hCHI3L1; both purified
[4] = biological target: ACTN4 (actinin alpha 4; GST-tagged, on the HuProt 20K human proteome microarray) (human) (UniProt O43707); test: as above
[5] = biological target: NFKB1 (GST-tagged, on the HuProt 20K human proteome microarray) (human) (UniProt P19838); test: as above
[6] = biological target: T1, NFKB2 (GST-tagged, on the HuProt 20K human proteome microarray) (human) (UniProt Q00653); test: as above
T1 sequence: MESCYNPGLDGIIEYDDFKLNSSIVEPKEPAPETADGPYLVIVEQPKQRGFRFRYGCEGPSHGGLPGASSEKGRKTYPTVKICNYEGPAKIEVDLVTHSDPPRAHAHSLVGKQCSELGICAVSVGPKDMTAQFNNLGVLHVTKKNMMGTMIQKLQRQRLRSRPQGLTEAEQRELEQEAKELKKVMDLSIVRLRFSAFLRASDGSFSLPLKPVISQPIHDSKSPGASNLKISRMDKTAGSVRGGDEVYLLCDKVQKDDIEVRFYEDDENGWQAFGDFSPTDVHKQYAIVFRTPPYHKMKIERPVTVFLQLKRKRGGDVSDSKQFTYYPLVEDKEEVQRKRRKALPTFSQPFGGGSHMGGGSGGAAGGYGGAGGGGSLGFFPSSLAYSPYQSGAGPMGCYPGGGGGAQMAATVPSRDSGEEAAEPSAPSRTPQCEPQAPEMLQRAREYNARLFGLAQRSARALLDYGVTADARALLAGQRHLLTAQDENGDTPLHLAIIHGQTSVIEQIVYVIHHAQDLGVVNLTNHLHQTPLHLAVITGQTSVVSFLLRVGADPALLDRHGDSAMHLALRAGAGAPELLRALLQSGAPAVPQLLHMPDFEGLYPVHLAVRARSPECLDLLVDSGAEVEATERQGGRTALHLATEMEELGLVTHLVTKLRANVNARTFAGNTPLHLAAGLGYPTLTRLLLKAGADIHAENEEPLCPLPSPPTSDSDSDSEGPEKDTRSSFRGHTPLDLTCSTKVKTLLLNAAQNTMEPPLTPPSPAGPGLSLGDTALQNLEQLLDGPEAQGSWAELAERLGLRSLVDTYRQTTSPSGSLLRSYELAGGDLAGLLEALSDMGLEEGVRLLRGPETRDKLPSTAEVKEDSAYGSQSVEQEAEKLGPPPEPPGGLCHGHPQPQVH

[7] = biological target: T2, NFKBIB (GST-tagged, on the HuProt 20K human proteome microarray) (human) (UniProt Q15653); test: as above
T2 sequence: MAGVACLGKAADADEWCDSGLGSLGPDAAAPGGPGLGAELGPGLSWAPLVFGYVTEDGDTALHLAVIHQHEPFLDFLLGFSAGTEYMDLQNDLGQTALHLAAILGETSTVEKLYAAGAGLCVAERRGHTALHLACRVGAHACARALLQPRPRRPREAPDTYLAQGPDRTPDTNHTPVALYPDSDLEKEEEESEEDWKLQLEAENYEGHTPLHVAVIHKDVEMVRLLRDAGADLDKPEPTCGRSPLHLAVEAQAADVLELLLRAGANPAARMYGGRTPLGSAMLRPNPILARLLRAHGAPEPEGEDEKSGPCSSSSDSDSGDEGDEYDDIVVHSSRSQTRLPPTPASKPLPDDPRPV

binding [1] | binding [2] | binding [3] | binding [4] | binding [5] | binding [6] | binding [7] | Substance
binds | binds |  |  |  |  |  | ACTN4 (actinin alpha 4), endogenous in glioblastoma cells (from UniProt O43707 1-911)
binds |  |  |  |  |  |  | NFKB1, endogenous in U87MG cells (from UniProt P19838 1-968)
 |  | binds | binds | binds | binds | binds | recombinant human CHI3L1 (Chitinase-3-like protein 1), biotin-labelled (from UniProt P36222 22-383)
